pEC50, pKi: −log10 of the molar value. Where two headings read alike, the source gives them in different places. Some entries share one result that the patent states for a list of compounds. For at least one compound, name, drawing or mass did not settle the structure.
Columns and labels:
[1] = biological target: T1, human AR (androgen receptor) (Homo sapiens, UniProt P10275); experiment: Steroid hormone nuclear receptor binding assay (AR binding)
T1 construct: expressed in transfected cells; host or cells: HEK293 cells (lysate, '293-AR lysate')
T1 sequence (P10275 1-920): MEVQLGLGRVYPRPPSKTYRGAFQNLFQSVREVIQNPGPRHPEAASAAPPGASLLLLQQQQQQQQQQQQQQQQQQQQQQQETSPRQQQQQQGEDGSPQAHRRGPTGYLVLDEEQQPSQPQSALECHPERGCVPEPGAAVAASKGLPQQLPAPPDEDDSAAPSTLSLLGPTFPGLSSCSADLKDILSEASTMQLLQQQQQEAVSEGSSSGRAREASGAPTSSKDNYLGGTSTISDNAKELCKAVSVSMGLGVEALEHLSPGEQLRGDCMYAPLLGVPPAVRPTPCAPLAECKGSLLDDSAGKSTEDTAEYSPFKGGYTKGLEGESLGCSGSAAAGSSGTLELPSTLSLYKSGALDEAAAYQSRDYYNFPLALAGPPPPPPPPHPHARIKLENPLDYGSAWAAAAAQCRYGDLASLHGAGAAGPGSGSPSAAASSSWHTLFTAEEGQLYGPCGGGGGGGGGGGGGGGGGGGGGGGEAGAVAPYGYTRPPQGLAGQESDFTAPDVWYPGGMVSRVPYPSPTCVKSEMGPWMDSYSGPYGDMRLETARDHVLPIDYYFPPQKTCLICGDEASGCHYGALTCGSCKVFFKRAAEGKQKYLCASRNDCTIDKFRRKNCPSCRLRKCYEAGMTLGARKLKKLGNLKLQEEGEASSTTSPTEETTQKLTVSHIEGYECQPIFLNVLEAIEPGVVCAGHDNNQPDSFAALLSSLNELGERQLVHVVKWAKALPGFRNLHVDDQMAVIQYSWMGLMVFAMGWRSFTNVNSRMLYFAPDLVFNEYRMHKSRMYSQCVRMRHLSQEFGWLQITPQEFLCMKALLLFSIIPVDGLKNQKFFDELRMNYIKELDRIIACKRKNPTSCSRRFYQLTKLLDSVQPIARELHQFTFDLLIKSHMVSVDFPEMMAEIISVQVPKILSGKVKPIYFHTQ
Experimental: Cell lysates from human embryonic kidney HEK293 cells overexpressing human MR (mineralocorticoid receptor), GR (glucocorticoid receptor), AR (androgen receptor), or PR (progesterone receptor) are used for receptor-ligand competition binding assays to determine Ki values. Typical procedures are provided below
Briefly, steroid receptor competition binding assays are run in a buffer containing 20 mM HEPES buffer (pH=7.6), 0.2 mM EDTA, 75 mM NaCl, 1.5 mM MgCl2, 20% glycerol, 20 mM sodium molybdate, 0.2 mM DTT (dithiothreitol), 20 μg/mL aprotinin and 20 μg/mL leupeptin (assay buffer). […] Assays are typically run in 96-well format. Competing test compounds are added at various concentrations ranging from about 0.01 nM to 10 μM. Non-specific binding is determined in the presence of 500 nM aldosterone for MR binding, 500 nM dexamethasone for GR binding, or 500 nM methyltrienolone for AR and PR binding. […] Plates are mixed for 8 minutes on an orbital shaker at 4° C. The plates are then centrifuged at 3,000 rpm at 4° C. for 10 minutes. An aliquot of 120 μL of the binding reaction mixture is then transferred to another 96-well plate and 175 μL of Wallac Optiphase Hisafe 3™ scintillation fluid is added to each well. Plates are sealed and shaken vigorously on an orbital shaker. After an incubation of 2 hours, plates are read in a Wallac Microbeta counter.
The Kd for [^3H]-aldosterone for MR binding, [^3H]-dexamethasone for GR binding, [^3H]-methyltrienolone for AR binding, or [^3H]-methyltrienolone for PR binding, is determined by saturation binding. The IC50 values for compounds are converted to Ki using the Cheng-Prusoff equation.

[2] = biological target: T2, human androgen receptor (AR) (Homo sapiens, UniProt P10275); experiment: C2C12 AR/ARE reporter assay; assay type: cell-based
T2 construct: expressed in transfected cells; host or cells: mouse myoblast C2C12 cells, transient co-transfection with Fugene
T2 sequence (P10275 1-920): T1 sequence (P10275 1-920)
Experimental: As an indicator of agonist activity in muscle tissue, the C2C12 AR/ARE reporter assay is performed. Briefly, mouse myoblast C2C12 cells are co-transfected using Fugene™ reagent. A reporter plasmid containing a GRE/ARE (glucocorticoid response element/androgen response element) and TK promoter upstream of the luciferase reporter cDNA, is transfected with a plasmid constitutively expressing human androgen receptor (AR) using viral CMV promoter. Cells are transfected in T150 cm^2 flasks in DMEM media with 4% charcoal stripped Fetal Bovine Serum (FBS). After a 5 hour incubation, transfected cells are trypsinized, plated in 96 well dishes in DMEM media containing 4% charcoal-stripped FBS, incubated for 2 h and then exposed to various concentrations of test compounds ranging from about 0.01 nM to 10 μM. After 48 h of incubations with compounds, cells are lysed and luciferase activity is determined by standard techniques. Data is fit to a 4 parameter-fit logistics to determine EC50 values. The % efficacy is determined versus maximum stimulation obtained with 10 nM methyltrienolone.

[3] = HEK293 lysate overexpressing human AR, [3H]-methyltrienolone; read-out: Ki in the AR binding assay
[4] = mouse myoblast C2C12 cells transfected with human AR; read-out: EC50 in the C2C12 AR/ARE reporter assay
[5] = read-out: Ki in the AR binding assay; HEK293 lysate overexpressing human AR, [3H]-methyltrienolone
[6] = read-out: EC50 in the C2C12 AR/ARE reporter assay; mouse myoblast C2C12 cells transfected with human AR

| SMILES | pKi [1, 3] | pEC50 [2, 4] | pKi [1, 5] | pEC50 [2, 6] |
| --- | --- | --- | --- | --- |
| CC(C)OC(=O)N[C@H]1Cc2c(n(C[C@@H]3N(C)CC[C@@]3(C)O)c3ccc(C#N)cc23)C1 (racemic) [Example 5, [(S)-7-Cyano-4-(trans-3-hydroxy-1-methyl-3-methyl-pyrrolidin-2-ylmethyl)-1,2,3,4-tetrahydro-cyclopenta[b]indol-2-yl]-carbamic acid isopropyl ester (racemic)] | ≥ 6.30 | ≥ 5.70 | – | – |
| CC(C)OC(=O)N[C@H]1Cc2c(n(C[C@@H]3N(C)CC[C@@]3(C)O)c3ccc(C#N)cc23)C1 (relative stereo) [Example 6, [(S)-7-Cyano-4-(trans-3-hydroxy-1-methyl-3-methyl-pyrrolidin-2-ylmethyl)-1,2,3,4-tetrahydro-cyclopenta[b]indol-2-yl]-carbamic acid isopropyl ester] | – | ≥ 5.70 | – | – |
| CC(C)OC(=O)N[C@H]1Cc2c(n(C[C@@H]3N(C)CC[C@@]3(C)O)c3ccc(C#N)cc23)C1 (relative stereo) [Example 7, [(S)-7-Cyano-4-(trans-3-hydroxy-1-methyl-3-methyl-pyrrolidin-2-ylmethyl)-1,2,3,4-tetrahydro-cyclopenta[b]indol-2-yl]-carbamic acid isopropyl ester] | ≥ 6.30 | ≥ 5.70 | – | – |
| CC(C)OC(=O)N[C@H]1Cc2c(n(C[C@H]3NCC[C@@H]3O)c3ccc(C#N)cc23)C1 [Example 1, [(S)-7-Cyano-4-((2R,3S)-3-hydroxy-pyrrolidin-2-ylmethyl)-1,2,3,4-tetrahydrocyclopenta[b]indol-2-yl]-carbamic acid isopropyl ester] | – | – | ≥ 6.30 | ≥ 5.70 |
| CC(C)OC(=O)N[C@H]1Cc2c(n(C[C@@H]3[C@@H](O)CCN3C)c3ccc(C#N)cc23)C1 [Example 2, [(S)-7-Cyano-4-((2R,3S)-3-hydroxy-1-methyl-pyrrolidin-2-ylmethyl)-1,2,3,4-tetrahydrocyclopenta[b]indol-2-yl]-carbamic acid isopropyl ester] | – | – | ≥ 6.30 | ≥ 5.70 |
| CCN1CC[C@H](O)[C@H]1Cn1c2c(c3cc(C#N)ccc31)C[C@H](NC(=O)OC(C)C)C2 [Example 3, [(S)-7-Cyano-4-((2R,3S)-3-hydroxy-1-ethyl-pyrrolidin-2-ylmethyl)-1,2,3,4-tetrahydro-cyclopenta[b]indol-2-yl]-carbamic acid isopropyl ester] | ≥ 6.30 | ≥ 5.70 | – | – |
| CC(C)OC(=O)N[C@H]1Cc2c(n(C[C@@H]3[C@H](O)CCN3C)c3ccc(C#N)cc23)C1 [Example 4, [(S)-7-Cyano-4-((2R,3R)-3-hydroxy-1-methyl-pyrrolidin-2-ylmethyl)-1,2,3,4-tetrahydro-cyclopenta[b]indol-2-yl]-carbamic acid isopropyl ester] | – | – | ≥ 6.30 | ≥ 5.70 |
| CC(C)OC(=O)N[C@H]1Cc2c(n(Cc3cccc(F)c3O)c3ccc(C#N)cc23)C1 [Example 8, [(S)-7-cyano-4-(3-fluoro-2-hydroxybenzyl)-1,2,3,4-tetrahydrocyclopenta[b]indol-2-y]-carbamic acid isopropyl ester] | ≥ 6.30 | ≥ 5.70 | – | – |
| CC(C)OC(=O)N[C@H]1Cc2c(n(Cc3ccccc3O)c3ccc(C#N)cc23)C1 [Example 9, [(S)-7-Cyano-4-(2-hydroxy-benzyl)-1,2,3,4-tetrahydro-cyclopenta[b]indol-2-yl]-carbamic acid isopropyl ester] | – | – | ≥ 6.30 | ≥ 5.70 |
| CC(C)OC(=O)N[C@H]1Cc2c(n(Cc3cc(F)ccc3O)c3ccc(C#N)cc23)C1 [Example 10, [(S)-7-Cyano-4-(5-fluoro-2-hydroxy-benzyl)-1,2,3,4-tetrahydro-cyclopenta[b]indol-2-yl]carbamic acid isopropyl ester] | ≥ 6.30 | ≥ 5.70 | – | – |
| CC(C)OC(=O)N[C@H]1Cc2c(n(Cc3ncccc3O)c3ccc(C#N)cc23)C1 [Example 12, (S)-7-Cyano-4-((3-hydroxypyridin-2-yl)methyl)-1,2,3,4-tetrahydrocyclopenta[b]indol-2-ylcarbamic acid isopropyl ester] | ≥ 6.30 | ≥ 5.70 | – | – |

From US8486943B2, “Tetrahydrocyclopenta[b]indole androgen receptor modulators” (Eli Lilly and Company, priority 2008, dated 2013)
